# Results deposited as PubChem BioAssay AID1259424 (University of Nebraska Medical Center, 2018)
# Assay: 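Seek colon cancer survival genes behaving like KSR1, using a six-gene signature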 (primary screen)
# System: human HCT116 colon cancer cells
# Knock-down reagent: siRNA pool against human genes, 50 nM
# Measured: 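Six signature mRNAs by branched-DNA multiplex assay, scaled to two housekeeping genes and non-targeting median, log2; matched to mean KSR1 knockdown profile by Pearson correlation and euclidean distance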
# Reading the numbers: mean correlation with KSR1 profile and KSR1 correlation: higher = expression change more like KSR1 knockdown; mean distance from KSR1 profile: higher = expression change less like KSR1 knockdown
# The whole screen tested about 14,000 reagents; shown is a part drawn at random. 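Higher correlation or smaller distance means closer resemblance to KSR1 loss; control wells, including KSR1 knockdowns, recur on many plates.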 Reagents against one gene are numbered here. Not stated in the record: the time to read-out.
gene,pool no.,mean correlation with KSR1 profile,mean distance from KSR1 profile,"KSR1 correlation, replicate 1","KSR1 correlation, replicate 2","KSR1 correlation, replicate 3"
EIF2AK4,1,0.158,2.34,0.259,0.0568,-0.216
PYGB,1,-0.442,2.41,-0.232,-0.628,-0.389
KLHL24,1,0.542,1.46,0.374,0.639,0.497
ZDHHC20,1,-0.331,2.58,-0.307,-0.423,-0.417
ATP2B4,1,0.152,1.47,0.423,0.00635,-0.24
ZNRF1,1,0.616,2,0.692,0.519,0.241
H1-6,1,-0.228,1.99,-0.468,-0.221,0.113
ADCY5,1,-0.4,2.09,-0.396,-0.432,-0.636
FOXG1,1,0.182,3,0.348,0.243,0.223
FOXG1,2,-0.17,2.71,-0.187,-0.402,-0.252
TRMT61B,1,-0.84,5.78,-0.6,-0.624,-0.62
C8B,1,0.0265,2.89,-0.117,0.171,-0.101
ABCB9,1,-0.228,2.84,0.0311,-0.177,-0.287
KLK10,1,0.674,3.32,0.634,0.887,0.357
HPD,1,-0.128,2.98,-0.0168,-0.264,-0.0702
TMPRSS5,1,0.254,1.84,-0.305,0.16,0.464
RPL31,1,-0.138,4.5,-0.146,0.12,-0.617
R3HDM1,1,-0.383,1.65,-0.515,-0.163,-0.418
REEP1,1,-0.37,2.41,-0.284,-0.501,-0.367
KCMF1,1,-0.127,1.88,-0.0344,-0.319,-0.0836
CALCOCO1,1,0.0791,4.36,-0.0384,-0.411,0.285
ZNF821,1,-0.2,1.17,-0.384,-0.428,-0.0557
BST1,1,0.414,2.53,0.467,0.422,0.17
KCNMB1,1,-0.45,1.26,-0.626,-0.649,-0.0377
COX11,1,0.484,1.91,0.538,0.439,0.335

As entered above:
Under “KSR1 correlation, replicate 1”, FOXG1 #2 reads -0.187
For “KSR1 correlation, replicate 3”, EIF2AK4 is entered as -0.216
HPD, KSR1 correlation, replicate 3: -0.0702
ZDHHC20, KSR1 correlation, replicate 1 = -0.307
ZNRF1, KSR1 correlation, replicate 3: 0.241
KCNMB1, mean distance from KSR1 profile → 1.26

The listing continues:
gene,pool no.,mean correlation with KSR1 profile,mean distance from KSR1 profile,"KSR1 correlation, replicate 1","KSR1 correlation, replicate 2","KSR1 correlation, replicate 3"
GIGYF2,1,0.0406,5.49,0.228,-0.0408,-0.273
ACOT2,1,-0.381,3,-0.342,-0.559,-0.149
NCBP3,1,-0.0542,2.42,0.144,-0.259,-0.161
HBP1,1,-0.184,2.28,-0.208,-0.529,-0.477
H3C10,1,-0.23,2.57,-0.229,-0.218,-0.292
IL15RA,1,-0.364,1.54,-0.269,-0.66,-0.109
BCAP29,1,-0.124,2.03,-0.187,-0.202,-0.113
PLXNA3,1,-0.913,3.17,-0.907,-0.973,-0.8
ZNF17,1,0.0447,2.2,-0.00661,0.374,-0.00474
MET,1,-0.349,3.18,-0.31,-0.343,-0.392
SF3B2,1,-0.58,3.67,-0.602,-0.492,-0.495
GOLGA1,1,0.171,2.21,0.104,0.131,-0.0232
TRPA1,1,-0.652,2.24,-0.704,-0.709,-0.469
THEMIS2,1,-0.197,2.42,-0.368,-0.112,-0.011
MON1B,1,-0.18,1.7,-0.111,-0.121,-0.378
RAB3D,1,-0.294,1.31,-0.473,0.141,-0.0159
PRAC1,1,0.771,2.19,0.663,0.681,0.668
LYSET,1,-0.644,2.32,-0.544,-0.628,-0.661
DSC3,1,-0.2,3.3,-0.258,0.122,-0.316
PITPNC1,1,-0.737,1.76,-0.475,-0.755,-0.621
GNB1,1,0.864,1.32,0.869,0.859,0.878
ZMYM5,1,0.504,1.61,0.291,0.493,0.604
ATP6V1G2,1,-0.158,1.23,0.2,-0.00476,-0.492
KRTAP4-12,1,0.643,1.55,0.349,0.47,0.789
ATP5F1C,1,-0.495,1.63,-0.451,-0.408,-0.507
